Data published in paper PMC7819943, “Rice protein-binding microarrays: a tool to detect cis-acting elements near promoter regions in rice”.
Some of the results follow.

Chains of the proteins cited; added tags and fusions are not shown.
UniProt Q0JBA9, entry or part of it: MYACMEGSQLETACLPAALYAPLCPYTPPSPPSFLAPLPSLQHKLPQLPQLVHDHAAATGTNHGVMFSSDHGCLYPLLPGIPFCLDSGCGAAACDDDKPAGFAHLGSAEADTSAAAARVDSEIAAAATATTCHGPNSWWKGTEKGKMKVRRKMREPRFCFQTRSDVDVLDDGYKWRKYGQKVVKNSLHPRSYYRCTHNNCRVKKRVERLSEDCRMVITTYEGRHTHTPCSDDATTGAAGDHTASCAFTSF

molecular target: OsWRKY34 (Oryza sativa, UniProt Q0JBA9 1-250); experiment: protein-binding microarray (RPBM); PBS, 2% BSA, 51.3 ng/ul salmon testes DNA, 50 uM zinc acetate, 200 nM TF, 25 C, 1 h; high values mean tight binding; conditions: protein: recombinant; tags: N-terminal polyhistidine and DsRed monomer fusion (pET32a); label: CyDye5-dUTP incorporated in the synthesized complementary strand; 3' TTTTT single-stranded linker to array surface; dsDNA, one strand shown
In short: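 Transcription factors, each fused N-terminally to a polyhistidine tag and DsRed, were expressed in E. coli BL21-CodonPlus and purified on Ni–NTA. A custom Agilent array was made double-stranded by primer extension with Cy5-dUTP and blocked with 2% BSA. It was incubated with 200 nM protein in PBS, 2% BSA, salmon testes DNA and 50 µM zinc acetate at 25 °C for 1 h, then washed. The binding signal is per-feature fluorescence intensity (arbitrary units) read on an Axon 4000B scanner.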

| Sequence | binding signal |
| --- | --- |
| TAGCCACCATCTCAGCAATACAACCGCTACTGCTAAAAACCGGAGTCACCTAGTGCAG | 8200 fluorescence intensity (a.u.) |
| CGGCCACCACCAAACCACCACCATCCCGACCAATCAAACGCGGAGTCACCTAGTGCAG | 9760 fluorescence intensity (a.u.) |
| ATATTTTTATCTAATCATTCTCACCTATTTTGTTAATACCCGGAGTCACCTAGTGCAG | 10000 fluorescence intensity (a.u.) |
| TAGTTTTCTCAGGTGTTTGGGAATTGGTTGGTGAAGATGACGGAGTCACCTAGTGCAG | 9450 fluorescence intensity (a.u.) |
| ACGTCTGCCGCCACTGTCCTCGCCAACCCTACCGCGCTCCCGGAGTCACCTAGTGCAG | 10500 fluorescence intensity (a.u.) |
| CTTTTAGGTCTAATTTACTGGTAGCAGCATAGAATTTTCACGGAGTCACCTAGTGCAG | 8510 fluorescence intensity (a.u.) |
| TGGATGGTCTCTAGTTCTTTAGGATTTAAATGGTTATTGTCGGAGTCACCTAGTGCAG | 8170 fluorescence intensity (a.u.) |
| TTGTTCTTCCCGTGCTGATTTGGATTTAATTACAAGTATTCGGAGTCACCTAGTGCAG | 8200 fluorescence intensity (a.u.) |
| CCTCCATCTGATATTTCTCTCTTCTCGCATCCGTGTCTTCCGGAGTCACCTAGTGCAG | 9170 fluorescence intensity (a.u.) |
| CCACCAGCGCCTCCTCTCACGCCCGCACCCACGCCCTAAACGGAGTCACCTAGTGCAG | 9770 fluorescence intensity (a.u.) |
| TATAGGTCACATATTACGTCCATTTGAGTTCAATTTTTCTCGGAGTCACCTAGTGCAG | 10900 fluorescence intensity (a.u.) |
| CCACCACCCCGCGGCTTCGCTCGCGCCACCGCCACTGATTCGGAGTCACCTAGTGCAG | 9960 fluorescence intensity (a.u.) |
| TATTATACCATCGATAGAGAGCACCAGAGCATCGTTCATTCGGAGTCACCTAGTGCAG | 8850 fluorescence intensity (a.u.) |
| CCCGCCTCCGCCGCGCGCCGCCATCCATCCTCCTCTCCGGCGGAGTCACCTAGTGCAG | 9810 fluorescence intensity (a.u.) |
| ACCATCTCAAATCACCCTCACGATCTCAATCACGTTGCGCCGGAGTCACCTAGTGCAG | 8320 fluorescence intensity (a.u.) |
| CTCTCTGTTTTGCCTACCCTTCTATCAATCAGTTTGGACACGGAGTCACCTAGTGCAG | 8280 fluorescence intensity (a.u.) |
| ATTTTTCATGGCGTCACCCTATAATTTTCGCTGGCGGTTACGGAGTCACCTAGTGCAG | 8550 fluorescence intensity (a.u.) |
| CACTATTCATGTTCAACGTTTCACCGTTCGTCTTATTTAACGGAGTCACCTAGTGCAG | 15600 fluorescence intensity (a.u.) |
| GCATCTATCTACTCCTACTATCTCTCTATCTGCATCTACTCGGAGTCACCTAGTGCAG | 10300 fluorescence intensity (a.u.) |
| CCCGGTTTCACGTGGCCTCTCTTTTGACCCGTCTTTGACCCGGAGTCACCTAGTGCAG | 9940 fluorescence intensity (a.u.) |
| GCTTCCGGCCCTGTGTCACGCCGCGCCGTTCCTCGTCGTCCGGAGTCACCTAGTGCAG | 8520 fluorescence intensity (a.u.) |

| Sequence | binding signal |
| --- | --- |
| CCTCCCAGGCAGCCTATATAATTATTCTTCTATCAATTATCGGAGTCACCTAGTGCAG | 8470 fluorescence intensity (a.u.) |
| CTCATCCTGCCGCCGCCGAATCGCCGATGGATCAATGCTCCGGAGTCACCTAGTGCAG | 8820 fluorescence intensity (a.u.) |
| GTGAATTACTACCATTTGTCATGCATTTTGTCCCATTTCACGGAGTCACCTAGTGCAG | 13400 fluorescence intensity (a.u.) |
| CTTTCTTCTTTTCTTCCGGCCTCTCTTGTCTCTTCAACTCCGGAGTCACCTAGTGCAG | 14100 fluorescence intensity (a.u.) |
| GGCGAGGCGGGATTGTTGGCGGGGAAGATGCGGGGCTATGCGGAGTCACCTAGTGCAG | 9670 fluorescence intensity (a.u.) |
| TCGTTCTCTGTTTCTTTTTGCTGAGCTCTTCAAGTATGGACGGAGTCACCTAGTGCAG | 8290 fluorescence intensity (a.u.) |
| CGTTCCAATTTTAACCAGACTTTCAATTTTGGCGTGAACTCGGAGTCACCTAGTGCAG | 8800 fluorescence intensity (a.u.) |
| CTCCCTCCGCCGCCCCGGTTACGCAACCAAATACCGACGGCGGAGTCACCTAGTGCAG | 8050 fluorescence intensity (a.u.) |
| CTACGTCTACTTGCGCGTTTCTTGCCGTCTTCCCAGCGTGCGGAGTCACCTAGTGCAG | 8750 fluorescence intensity (a.u.) |
| ATACACTGCTGCCCATGTCTTTTGAGCGCCGCTCGACTATCGGAGTCACCTAGTGCAG | 9750 fluorescence intensity (a.u.) |
| TCATCACTCATCAAGGCTGCTTGGCTGCTTTAAGCATTCACGGAGTCACCTAGTGCAG | 8390 fluorescence intensity (a.u.) |
| GTTTTTTCCCTTATGGTTGAACTCTTCTTTTAATCAGCTTCGGAGTCACCTAGTGCAG | 8480 fluorescence intensity (a.u.) |
| CCCCGGCCCACACCTCCCCACAGTTTTGACCGACATTGTGCGGAGTCACCTAGTGCAG | 8500 fluorescence intensity (a.u.) |
| TTGTCTCAAATTAATTGTTTTTTAAGGTTGTTTGGCATATCGGAGTCACCTAGTGCAG | 9260 fluorescence intensity (a.u.) |
| TGTTTGCAGTTAGTGGAACTGAGTTTGGTTCTTCCTATTCCGGAGTCACCTAGTGCAG | 8900 fluorescence intensity (a.u.) |
| CAGTGACCAGTGTAATATGTTTCATAGTGTCGTTCTTTTCCGGAGTCACCTAGTGCAG | 9850 fluorescence intensity (a.u.) |
| AAATGTTTGACGCCGTTGACTTTTTTAAACATGTTTGACCCGGAGTCACCTAGTGCAG | 33600 fluorescence intensity (a.u.) |
| CGCAGTCTCCTCCATCTATTTCTCTCTCTCGCTCCAGCGACGGAGTCACCTAGTGCAG | 8030 fluorescence intensity (a.u.) |
| ATTATCTACAGTATTTTAAGCACAACTTTTTGTTTTTTACCGGAGTCACCTAGTGCAG | 9540 fluorescence intensity (a.u.) |
| AATCTCCCGTCTCGTTCTCGTCGTCTCCTCCGCTCCGCTCCGGAGTCACCTAGTGCAG | 10200 fluorescence intensity (a.u.) |
| TTTTTTTTGTGGTTGGTTGTATCGTGATCCTAAGTGTGAACGGAGTCACCTAGTGCAG | 15300 fluorescence intensity (a.u.) |

A portion taken from the entries so far:

| Sequence | binding signal |
| --- | --- |
| TCGTTCTCTGTTTCTTTTTGCTGAGCTCTTCAAGTATGGACGGAGTCACCTAGTGCAG | 8290 fluorescence intensity (a.u.) |
| CGTTCCAATTTTAACCAGACTTTCAATTTTGGCGTGAACTCGGAGTCACCTAGTGCAG | 8800 fluorescence intensity (a.u.) |
| CTCCCTCCGCCGCCCCGGTTACGCAACCAAATACCGACGGCGGAGTCACCTAGTGCAG | 8050 fluorescence intensity (a.u.) |
| CTACGTCTACTTGCGCGTTTCTTGCCGTCTTCCCAGCGTGCGGAGTCACCTAGTGCAG | 8750 fluorescence intensity (a.u.) |
| ATACACTGCTGCCCATGTCTTTTGAGCGCCGCTCGACTATCGGAGTCACCTAGTGCAG | 9750 fluorescence intensity (a.u.) |
| TCATCACTCATCAAGGCTGCTTGGCTGCTTTAAGCATTCACGGAGTCACCTAGTGCAG | 8390 fluorescence intensity (a.u.) |
| GTTTTTTCCCTTATGGTTGAACTCTTCTTTTAATCAGCTTCGGAGTCACCTAGTGCAG | 8480 fluorescence intensity (a.u.) |
| CCCCGGCCCACACCTCCCCACAGTTTTGACCGACATTGTGCGGAGTCACCTAGTGCAG | 8500 fluorescence intensity (a.u.) |
| TTGTCTCAAATTAATTGTTTTTTAAGGTTGTTTGGCATATCGGAGTCACCTAGTGCAG | 9260 fluorescence intensity (a.u.) |
| TGTTTGCAGTTAGTGGAACTGAGTTTGGTTCTTCCTATTCCGGAGTCACCTAGTGCAG | 8900 fluorescence intensity (a.u.) |
